# Assay results published in PubChem BioAssay AID445 (National Center for Advancing Translational Sciences (NCATS), 2006).
# Where “and” joins values, the source holds several entries; their conditions need not be identical. Identical values can stand only once. The list shows a part of the results. The main result of the screen is listed elsewhere. These columns were measured beside it and carry no call. Most of these compounds were active or inconclusive in the main read-out, so they are no random draw. Potencies come from curve fits of mixed quality, noted in brackets.
# Test: IkB Signaling
# Conditions: ABC-DLBCL IkBa-CBG/CBR dual luciferase ratio (green luciferase fused to IkBa over red control in OCI-Ly3 lymphoma cells), 4 h
# Procedure, shortened: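 In this assay, an IκBα–CBG68 fusion accumulates when IKK-driven degradation is blocked; native CBR normalizes for cell number. OCI-Ly3 cells were treated 4 h with compound and doxycycline, then green and red light read after Chroma-Glo addition.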
# [1] = measured here: control luc red channel unless noted
compound,measurement,setting,value
O=C(CSc1nnc2ccc3ccccc3n12)c1ccc(F)cc1,AC50,[1],"15.8 µM [falling, partial curve]"
Cc1ccc(C(=O)Nc2onc3c2CCCC3)cc1,AC50,[1],"0.316 µM [rising, full curve, poor fit]"
Cc1ccccc1C(=O)Nc1ccc2c(c1)CCCN2C(=O)c1cccs1,AC50,[1],"15.8 µM [falling, single point]"
COc1ccc(C(=O)N2CCC(c3nc(-c4ccc(S(=O)(=O)N5CCCC5)cc4)no3)CC2)cc1,AC50,[1],"15.8 µM [falling, partial curve]"
CCCn1c(SCC(=O)N2CCN(c3ccccc3)CC2)nc2ccccc2c1=O,AC50,[1],"10 µM [falling, partial curve]"
COc1ccc(C(=O)Nc2ccc(-c3nc4ccccc4s3)cc2C)cc1Cl,AC50,[1],"15.8 µM [rising, partial curve]"
COC(=O)c1cc(-c2ccc(OC)c(OC)c2)c2c(=O)[nH]c(=O)n(C)c2n1,AC50,[1],"3.98 µM [rising, partial curve]"
O=S(=O)(Nc1nc2ccccc2s1)c1ccc(Br)s1,AC50,[1],"12.6 µM [falling, partial curve]"
O=C(c1cc(-c2ccc(Cl)c(Cl)c2)on1)N1CCCCC1,AC50,[1],"0.0158 µM [falling, full curve]"
Cc1ccc(-n2ncc3c(Nc4ccccc4C)ncnc32)cc1,AC50,[1],"39.8 µM [falling, single point]"
COc1cccc(Cn2c(NCc3ccc(C)cc3)nc3c2c(=O)n(C)c(=O)n3C)c1,AC50,[1],"25.1 µM [falling, partial curve, poor fit]"
O=C(CCCn1c(=O)c2sccc2n(Cc2cccc(Cl)c2)c1=O)NCc1ccc2c(c1)OCO2,AC50,[1],"31.6 µM [falling, single point]"
CNS(=O)(=O)c1cn(CC(=O)N2CCN(c3cc(C)ccc3C)CC2)cc1S(=O)(=O)NC,AC50,[1],"25.1 µM [falling, single point]"
Cc1cc(C)cc(NC(=O)CSCc2cc(=O)c3ccc(C)c(C)c3[nH]2)c1,AC50,[1],"15.8 µM [falling, partial curve, poor fit]"
O=C(Nc1ccc2oc(-c3ccccc3F)nc2c1)c1ccc2c(c1)OCCO2,AC50,[1],"3.16 µM [falling, full curve]"
COc1ccc(NC(=O)CSc2nc(-c3ccco3)nc3cc(=O)[nH]n23)cc1,AC50,[1],"31.6 µM [falling, single point]"
Fc1ccc(Cn2c(-c3cccc(Br)c3)nc3ccccc32)cc1,AC50,[1],"39.8 µM [falling, single point]"
Cc1nn2c(C)c(C(=O)NCC(C)c3ccccc3)cnc2c1-c1ccccc1 (centres undefined),AC50,[1],"31.6 µM [falling, single point]"
O=C(NCCc1nc2ccccc2n1CCCOc1ccc(Cl)cc1)C1CCCCC1,AC50,[1],"15.8 µM [falling, partial curve]"
Cc1cccc(NC(=O)c2sc3nc(-c4ccccc4)cn3c2C)n1,AC50,[1],"3.16 µM [falling, full curve]"
Cc1cccc(NC(=O)CSc2nccn2-c2cccc(Cl)c2)c1C,AC50,[1],"15.8 µM [falling, partial curve]"
COc1ccc(C(=O)Nc2noc3ccccc23)cc1,AC50,[1],"10 µM [falling, partial curve]"
Cc1ccc(NC(=O)c2sc(-n3nc(C)c(Cc4ccc5c(c4)OCO5)c3C)nc2C)cc1C,AC50,[1],"15.8 µM [falling, partial curve]"
CCOc1cc(C2c3c(-c4ccccc4O)n[nH]c3C(=O)N2Cc2cccnc2)ccc1O (centres undefined),AC50,[1],"31.6 µM [falling, single point]"
COc1ccc(C2CC(=O)Nc3ccccc3S2(=O)=O)cc1OC (centres undefined),AC50,[1],"20 µM [falling, partial curve]"
O=C(Nc1ccc(F)c(Cl)c1)c1ccc2c(=O)n3c(nc2c1)CCCCC3,AC50,[1],"3.98 µM [falling, partial curve]"
CC(C)N(CCC(=O)c1ccc2ccccc2c1)Cc1ccccc1,AC50,measured here: IkB-luc green channel,"20 µM [falling, full curve, poor fit]"
same,AC50,measured here: control luc red channel,"7.94 µM [falling, full curve] and 3.98 µM [falling, partial curve]"
COc1ccc(Cn2c(=O)oc3ccc(C)cc32)cc1OC,AC50,[1],"7.94 µM [falling, partial curve]"
CCS(=O)(=O)N1CCc2cc(C(=O)Nc3cc(C(F)(F)F)ccc3Cl)ccc21,AC50,[1],"10 µM [falling, partial curve]"
CCOc1cc(C(=O)N2CCC(c3ccncc3)CC2)cc(OCC)c1OCC,AC50,[1],"3.16 µM [rising, partial curve, poor fit]"
COc1ccc(Cl)cc1NC(=O)CSc1nc(-c2ccco2)cc(C(F)(F)F)n1,AC50,[1],"25.1 µM [falling, single point]"
CCCCN(c1ccccc1)S(=O)(=O)c1ccc2c(c1)CC(C)N2C(=O)C1CC1 (centres undefined),AC50,[1],"5.01 µM [falling, partial curve]"
CCc1ccccc1Nc1nc2ccccc2n2cnnc12,AC50,[1],"7.94 µM [falling, full curve]"
CCOC(=O)C1CCN(C(c2cccs2)c2sc3nc(C)nn3c2O)CC1 (centres undefined),AC50,[1],"31.6 µM [rising, partial curve] [measured here: IkB-luc green channel]"
CCOC(=O)c1ccc(NC(=O)COC(=O)c2cn(CC)c3nc(C)ccc3c2=O)cc1,AC50,[1],"0.251 µM [rising, full curve, poor fit]"
Cc1cccc(C)c1OC(=O)CSc1nnc(-c2cccs2)o1,AC50,[1],"10 µM [falling, partial curve]"
COc1ccc(OC)c(NS(=O)(=O)c2ccc3[nH]c4c(c3c2)CCCCC4)c1,AC50,[1],"20 µM [falling, partial curve]"
Cc1ccc(F)c(NC(=O)Nc2ccc3snnc3c2)c1,AC50,[1],"1.58 µM [rising, full curve]"
Cc1ccc(C(C)NC(=O)c2cc(C)oc2C)cc1 (centres undefined),AC50,[1],"12.6 µM [falling, partial curve]"
Cc1ccc2c(c1)nnn2C1CCN(S(=O)(=O)c2cccc(S(=O)(=O)N(C)C)c2)CC1,AC50,[1],"31.6 µM [falling, single point]"
O=C1c2[nH]nc(-c3ccccc3O)c2C(c2cccc(Cl)c2)N1Cc1cccnc1 (centres undefined),AC50,[1],"20 µM [falling, partial curve]"
CCOC(=O)c1sc(NC(=O)CSc2n[nH]c(-c3ccccc3)n2)c(C#N)c1C,AC50,[1],"3.16 µM [falling, full curve]"
O=C(c1ccc(CSc2nc3ccncc3n2Cc2cccc(F)c2)cc1)N1CCCCC1,AC50,[1],"15.8 µM [falling, partial curve]"
CN(Cc1ccccc1)Cc1nc2c(c(=O)n(C)c(=O)n2C)n1CCCc1ccccc1,AC50,[1],"15.8 µM [falling, partial curve]"
CCOC(=O)c1c(C)oc2ccc(N(C(=O)c3ccncc3)S(=O)(=O)c3ccc(Br)cc3)cc12,AC50,[1],"12.6 µM [falling, partial curve]"
CC1=C(c2ccc(C(C)C)cc2)S(=O)(=O)NC1=NCc1ccccc1Br,AC50,[1],"15.8 µM [falling, single point]"
Cc1nn(Cc2ccc(Cl)cc2)c(C)c1NC(=O)c1noc2c1CCCCC2,AC50,[1],"6.31 µM [falling, partial curve]"
CC(=O)c1nc2ccccc2n1S(=O)(=O)c1ccc(C)cc1,AC50,[1],"3.98 µM [falling, partial curve]"
CCOc1ccc(CCNC(=O)Cn2ncc3c(=O)oc4ccc(C)cc4c32)cc1,AC50,[1],"39.8 µM [falling, single point]"
CCOc1cc2[nH]c(=O)n(CCCC(=O)N3CCN(c4ccc(OC)cc4)CC3)c(=O)c2cc1OCC,AC50,[1],"0.01 µM [rising, full curve]"
Cc1ccc(CN2CCN(CC(=O)NCc3ccc(Cl)cc3)C2=O)cc1,AC50,[1],"15.8 µM [falling, partial curve]"
CCN(CCNC(=O)Nc1ccc(Cl)cc1)c1ccccc1,AC50,[1],"20 µM [falling, partial curve]"
N=c1n(CCN2CCCCC2)c2ccccc2n1CC(O)COc1ccc(Cl)cc1Cl (centres undefined),AC50,[1],"25.1 µM [falling, partial curve]"
CCN(C1CCCCC1)S(=O)(=O)c1ccc(S(=O)(=O)NCc2ccncc2)cc1,AC50,[1],"12.6 µM [falling, partial curve]"
CCc1cccc(C)c1NC(=O)CSc1nc2ccccc2nc1N1CCOCC1,AC50,[1],"25.1 µM [falling, single point]"
COc1ccc(Cn2c(SCc3ccc(C(=O)NCc4cccs4)cc3)nc3cccnc32)cc1,AC50,[1],"20 µM [falling, single point]"
COc1ccccc1CN1C(=O)CN(C2CCCCCC2)C(=O)C1c1ccc(C)cc1 (centres undefined),AC50,[1],"39.8 µM [falling, single point]"
C=CCn1c(COc2ccc(Cl)cc2)nnc1SCc1ccc(C#N)cc1,AC50,[1],"7.94 µM [falling, partial curve]"
CCOC(=O)c1cc(-c2ccc(C)cc2)n(CCC(=O)Nc2ccc(C(C)C)cc2)c1C,AC50,[1],"12.6 µM [falling, partial curve]"
CC(=O)c1ccc(OCCCC(=O)N2CCN(S(=O)(=O)c3cccs3)CC2)cc1,AC50,[1],"12.6 µM [falling, partial curve]"
Cc1ccc(Cl)cc1NC(=O)CC(O)(C(F)(F)F)C(F)(F)F,AC50,[1],"3.98 µM [falling, full curve, poor fit]"
Cc1cccc(NC(=O)CS(=O)(=O)c2nc(-c3ccccc3)cn2-c2cccc(Cl)c2)c1C,AC50,[1],"7.94 µM [falling, partial curve]"
O=C(Nc1ccc2nc(-c3cccs3)[nH]c2c1)c1cccs1,AC50,[1],"12.6 µM [falling, partial curve]"
